Measured values as given in PubChem BioAssay AID504834 (National Center for Advancing Translational Sciences (NCATS), 2011).
Among all 320,000 compounds or so, about 22,000 (6.9%) were called active. Inconclusive results, whose numbers are uncertain, are shown with a selection of clear calls. Calls follow the shape of the dose curve; as a rule, active = well fitted inhibition curve with a large enough effect; inconclusive = small, poorly fitted or top-dose-only effect, or another doubt; inactive = no such curve, though single readings can be large or run the other way. Potencies beside an inconclusive call are fits to weak or partial responses and may not hold up.

assay: Primary qHTS for delayed death inhibitors of the malarial parasite plastid, 96 hour incubation; details: P. falciparum luciferase reporter growth; series mostly up to 28.7 µM; activity change, negative = inhibition: at the top concentration
Summary of the method: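 Infected RBCs, 2% Hct / 0.05% parasitemia final; luciferase-reporter P. falciparum; cpd 96 h, 37 C, 5% CO2; luciferase detection reagent; luminescence.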
% is scaled to controls: 0 for no effect and ±100 for the full control effect; potency is read from the fitted curve at half-maximal effect.

SMILES	Potency	activity change, negative = inhibition
CCn1c(CN2CCN(c3ccc(OC)cc3)CC2)nc2cc(S(=O)(=O)N(C)C)ccc21	inconclusive: 9.28 µM [inhibitor, single point]	–
O=[N+]([O-])c1ccc(Cl)c(/C=N/n2c(-c3cccnc3)n[nH]c2=S)c1	–	inactive: 78.2%
c1ccc(C2(N3CCCC3)CCCCC2)cc1	active: 13.5 µM	–
CCCCNc1cc(C)nc(NCc2ccccc2)n1	active: 0.828 µM	–
Cc1cccc(NC(=S)Nc2ccc(Oc3ccccc3)cc2)n1	active: 9.28 µM	–
O=C(CNCc1ccccc1Cl)Nc1ccc(C(=O)N2CCCCC2)cc1	–	inactive: 8.17%
Cc1ccc(-c2nc(N)sc2CC(=O)OCC(=O)NCC2CCCO2)cc1 (stereo not drawn)	–	inactive: -15.3%
N#Cc1c(NC(=O)c2ccc([N+](=O)[O-])o2)sc2c1CCC2	–	inactive: 51.8%
CN(CCC#N)C(=S)Nc1ccc(Oc2ccccc2)cc1	inconclusive: 18.5 µM [inhibitor, single point]	–
CCOc1ccc(NC(=O)CN2C(=O)CSc3ccc(S(=O)(=O)N4CCOCC4)cc32)cc1	inconclusive: 14.7 µM [inhibitor, partial curve, poor fit]	–
CCC(CC)C(=O)Nc1nnc(S(=O)(=O)N2CCCc3ccccc32)s1	active: 14.7 µM	–
CC(NC(=O)Oc1ccccc1)C(c1cccs1)N1CCOCC1 (stereo not drawn)	inconclusive: 10.4 µM [inhibitor, single point]	–
COC(=O)c1ccccc1NC(=O)c1nc2nc(C)cc(C(F)F)n2n1	inconclusive: 18.5 µM [inhibitor, single point]	–
O=[N+]([O-])c1cc(C(F)(F)F)ccc1NCCc1ccncc1	–	inactive: 15.8%
O=C(Nc1cccc2ncccc12)c1cccc(Br)c1	inconclusive: 0.465 µM [inhibitor, partial curve, poor fit]	–
CCOC(=O)C1(S(=O)(=O)c2ccc(Cl)cc2)CCN(Cc2ccc(C)cc2)CC1	inconclusive: 10.4 µM [inhibitor, single point]	–
CCc1noc(C)c1C(=O)OCC(=O)NC(C)c1ccccc1 (stereo not drawn)	–	inactive: 30.6%
Nc1cc(Cl)c(NC2=NCCN2)c(Cl)c1	–	inactive: 1.09%
Cc1cccc(C(=O)NCCNC(=O)c2ccccn2)c1	–	inactive: -16.2%
N#CC1=C(Nc2ccccc2)SC=C(c2ccccc2)N=C1N1CCOCC1	inconclusive: 11.7 µM [inhibitor, partial curve, poor fit]	–
COc1ccc(Cl)cc1S(=O)(=O)N1CCN(c2ccc(F)cc2)CC1	inconclusive: 10.4 µM [inhibitor, single point]	–
Cc1ccc(OCCn2ccnc2)c([N+](=O)[O-])c1	inconclusive: 11.7 µM [inhibitor, single point]	–
Cc1ccc2c(c1)nnn2C1CCN(S(=O)(=O)c2ccc(C(=O)N3C(C)CCCC3C)cc2)CC1 (stereo not drawn)	inconclusive: 16.5 µM [inhibitor, single point]	–
CCOc1ccc2nc(NC(=O)Cn3[nH]c(=O)c4ccccc4c3=O)sc2c1	–	inactive: -24.7%

Rewritten as a markdown table: entries from further up

| SMILES | Potency | activity change, negative = inhibition |
| --- | --- | --- |
| Cc1cccc(NC(=S)Nc2ccc(Oc3ccccc3)cc2)n1 | active: 9.28 µM | – |
| Cc1ccc(-c2nc(N)sc2CC(=O)OCC(=O)NCC2CCCO2)cc1 (stereo not drawn) | – | inactive: -15.3% |

Remaining list, next part

SMILES	Potency	activity change, negative = inhibition
CC(C)(C)OC(=O)N[C@H](C(=O)OC(C)(C)C)c1ccc2c(c1)OCO2	inconclusive: 13.1 µM [inhibitor, single point]	–
COc1ccc(NC(=O)C2CCCN2c2nn3c(=O)cc(C)nc3s2)cc1 (stereo not drawn)	inconclusive: 11.7 µM [inhibitor, partial curve, poor fit]	–
NC(=S)Nc1ccc(Oc2ccc(NC(N)=S)cc2)cc1	inconclusive: 0.185 µM [inhibitor, full curve, poor fit]	–
CC(=O)NC(Cc1ccccc1F)C(=O)NC1CCN(C(=O)NCc2ccccc2)CC1 (stereo not drawn)	–	inactive: 32.2%
Cc1cccc([C@@H]2[C@@H]3C(=O)N(Cc4ccccc4)C(=O)[C@@H]3[C@]3(Cc4ccccc4)C(=O)N(c4ccc(C(F)(F)F)cc4)C(=O)N23)c1	active: 8.28 µM	–
O=C(CN1C(=O)NC2(CCCCC2)C1=O)Nc1cc(C(F)(F)F)ccc1N1CCCCC1	inconclusive: 13.1 µM [inhibitor, partial curve]	–
CC12CCC(C(N)=O)(C1Br)C2(C)C (stereo not drawn)	–	inactive: -7.81%
Cc1c(NC(=O)COC(=O)C2=COCCO2)cccc1[N+](=O)[O-]	–	inactive: 62.8%
Cc1ccc(CC(=O)N/N=C/c2ccc(OC(=O)c3ccc([N+](=O)[O-])cc3)cc2)cc1	inconclusive: 9.28 µM [inhibitor, partial curve, poor fit]	–
O=C(c1ccc(Br)cc1)N(C1=NCCCCS1)c1ccccc1	–	inactive: -10.3%
COc1ccc(-c2cc(=O)oc3cc(OCc4nn[nH]n4)ccc23)cc1	active: 4.65 µM	–
O=C(COC(=O)c1ccccc1SCC(=O)N1CCCC1)Nc1ccccc1OC(F)F	inconclusive: 9.28 µM [inhibitor, partial curve, poor fit]	–
O=C(c1ccc2c(=O)n(Cc3ccccc3Cl)c(=S)[nH]c2c1)N1CCCC1	–	inactive: -6.76%
Cc1ccc(C(=O)NNc2c3ccccc3nc3ccccc23)cc1	–	inactive: -21.6%
O=C(Cc1csc(Nc2nc(=S)[nH]c3ccccc23)n1)NCCCN1CCN(c2ccccc2F)CC1	inconclusive: 16.5 µM [inhibitor, single point]	–
CCc1nnc(NC(=O)c2sc3nc4c(cc3c2N)CCCCC4)s1	inconclusive: 10.4 µM [inhibitor, single point]	–
CC1CCCCN1C(=O)CCC(=O)Nc1nnc(C2CCCCC2)s1 (stereo not drawn)	inconclusive: 8.28 µM [inhibitor, partial curve]	–
O=C(NCC(=O)N(c1ccc(Cl)cc1)C(C(=O)NC1CCCC1)c1cccnc1)c1ccco1 (stereo not drawn)	inconclusive: 4.65 µM [inhibitor, full curve, poor fit]	–
O=C(Nc1ccccc1)c1ccc(CN2CCc3ccccc3C2)cc1	–	inactive: 39.4%
Cc1cccc(NC(=O)NCC2CC2)c1	–	inactive: 35.2%
N#CC1=C(N)C(C#N)(C#N)[C@H](c2ccncc2)[C@H]2CC3(CC=C12)OCCO3	–	inactive: 4.06%
COc1ccccc1NC(=O)COc1cccc2c1CCNC2=O	–	inactive: -17.4%
N#C/C(=C\c1cn(CC(=O)N2CCCC2)c2ccccc12)C(=O)NCc1ccc2c(c1)OCO2	inconclusive: 18.5 µM [inhibitor, single point]	–
CC12CCC(C(=O)Nc3cccc(Cl)c3)(C(Br)C1=O)C2(C)C (stereo not drawn)	active: 14.7 µM	–
